Test results reported in the supplement of paper PMC10849652.
This is one part of the list.

Amino acid sequences for entries named in this document (tags omitted). A change or cut given only in a name is not applied to a line headed by its entry.
UniProt P16930: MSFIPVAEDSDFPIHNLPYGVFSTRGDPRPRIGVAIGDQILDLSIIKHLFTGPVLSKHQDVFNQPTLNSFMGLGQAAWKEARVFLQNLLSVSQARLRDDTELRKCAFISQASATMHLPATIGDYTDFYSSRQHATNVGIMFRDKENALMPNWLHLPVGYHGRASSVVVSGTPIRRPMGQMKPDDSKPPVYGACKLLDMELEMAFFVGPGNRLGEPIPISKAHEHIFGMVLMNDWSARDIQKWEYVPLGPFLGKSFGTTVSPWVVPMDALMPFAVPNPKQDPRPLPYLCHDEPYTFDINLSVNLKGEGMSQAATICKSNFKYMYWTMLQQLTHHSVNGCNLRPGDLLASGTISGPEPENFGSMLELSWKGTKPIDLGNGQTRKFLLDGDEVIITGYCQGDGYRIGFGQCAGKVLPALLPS
UniProt Q5XKK7: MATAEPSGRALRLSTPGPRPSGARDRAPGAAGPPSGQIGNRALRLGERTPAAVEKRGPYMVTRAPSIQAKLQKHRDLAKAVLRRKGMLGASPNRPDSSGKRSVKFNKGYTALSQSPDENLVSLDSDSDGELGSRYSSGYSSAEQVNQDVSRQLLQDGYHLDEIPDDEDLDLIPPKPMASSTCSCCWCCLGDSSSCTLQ
UniProt P41161: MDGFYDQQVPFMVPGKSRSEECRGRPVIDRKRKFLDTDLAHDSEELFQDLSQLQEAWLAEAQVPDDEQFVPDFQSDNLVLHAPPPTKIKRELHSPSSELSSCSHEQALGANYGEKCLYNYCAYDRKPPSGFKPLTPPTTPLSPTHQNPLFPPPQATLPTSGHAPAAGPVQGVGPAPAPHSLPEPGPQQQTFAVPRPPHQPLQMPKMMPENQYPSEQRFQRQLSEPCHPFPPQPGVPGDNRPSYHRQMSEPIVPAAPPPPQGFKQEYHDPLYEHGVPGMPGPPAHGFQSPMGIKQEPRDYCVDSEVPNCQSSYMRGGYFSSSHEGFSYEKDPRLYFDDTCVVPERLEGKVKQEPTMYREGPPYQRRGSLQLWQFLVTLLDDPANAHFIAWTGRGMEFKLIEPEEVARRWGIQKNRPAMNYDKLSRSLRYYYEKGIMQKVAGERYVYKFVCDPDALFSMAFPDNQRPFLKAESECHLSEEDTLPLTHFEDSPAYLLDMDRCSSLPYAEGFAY
UniProt H0Y354, whole entry, looked up: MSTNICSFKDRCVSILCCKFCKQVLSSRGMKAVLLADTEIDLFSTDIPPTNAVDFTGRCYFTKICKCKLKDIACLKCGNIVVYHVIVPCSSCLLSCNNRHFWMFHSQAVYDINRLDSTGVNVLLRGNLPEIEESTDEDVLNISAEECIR
UniProt Q9BQ89: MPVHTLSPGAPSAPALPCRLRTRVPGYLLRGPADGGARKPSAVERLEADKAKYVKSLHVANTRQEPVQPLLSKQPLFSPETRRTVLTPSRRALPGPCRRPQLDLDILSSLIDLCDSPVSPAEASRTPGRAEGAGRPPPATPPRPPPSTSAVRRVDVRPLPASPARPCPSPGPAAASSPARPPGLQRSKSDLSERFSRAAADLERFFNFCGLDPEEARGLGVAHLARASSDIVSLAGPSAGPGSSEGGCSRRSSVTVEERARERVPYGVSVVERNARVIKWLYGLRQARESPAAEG
EXOC3L2, A0A1C7CYX0, UniProt A0A1C7CYX0, whole entry, looked up: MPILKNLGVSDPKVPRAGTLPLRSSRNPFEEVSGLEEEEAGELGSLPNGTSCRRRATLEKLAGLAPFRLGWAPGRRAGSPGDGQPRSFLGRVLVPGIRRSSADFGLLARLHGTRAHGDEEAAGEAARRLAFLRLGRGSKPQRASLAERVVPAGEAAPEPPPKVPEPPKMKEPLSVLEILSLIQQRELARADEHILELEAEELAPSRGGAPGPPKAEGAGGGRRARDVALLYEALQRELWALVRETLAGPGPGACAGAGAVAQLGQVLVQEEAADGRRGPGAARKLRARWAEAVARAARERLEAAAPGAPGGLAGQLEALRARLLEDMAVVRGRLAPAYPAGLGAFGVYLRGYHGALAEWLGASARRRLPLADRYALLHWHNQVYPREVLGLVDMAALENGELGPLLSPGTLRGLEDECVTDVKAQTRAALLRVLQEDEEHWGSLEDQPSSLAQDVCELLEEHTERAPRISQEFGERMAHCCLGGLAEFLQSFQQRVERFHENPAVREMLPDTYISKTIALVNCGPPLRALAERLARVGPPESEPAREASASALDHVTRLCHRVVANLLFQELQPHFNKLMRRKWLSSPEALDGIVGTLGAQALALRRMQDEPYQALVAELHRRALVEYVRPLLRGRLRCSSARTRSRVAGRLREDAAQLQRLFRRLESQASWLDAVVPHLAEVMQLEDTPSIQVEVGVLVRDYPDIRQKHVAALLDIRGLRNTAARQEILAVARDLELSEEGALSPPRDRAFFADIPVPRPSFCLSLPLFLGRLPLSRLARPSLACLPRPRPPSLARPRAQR
UniProt Q9NYK6: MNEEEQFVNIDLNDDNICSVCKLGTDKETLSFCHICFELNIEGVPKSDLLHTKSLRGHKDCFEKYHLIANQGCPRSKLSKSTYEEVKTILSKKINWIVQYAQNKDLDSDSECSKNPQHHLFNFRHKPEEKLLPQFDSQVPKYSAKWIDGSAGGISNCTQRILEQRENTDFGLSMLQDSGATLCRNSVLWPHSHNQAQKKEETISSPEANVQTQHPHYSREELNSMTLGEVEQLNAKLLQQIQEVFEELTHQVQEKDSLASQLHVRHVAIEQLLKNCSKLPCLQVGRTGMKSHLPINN
UniProt Q9Y2D4: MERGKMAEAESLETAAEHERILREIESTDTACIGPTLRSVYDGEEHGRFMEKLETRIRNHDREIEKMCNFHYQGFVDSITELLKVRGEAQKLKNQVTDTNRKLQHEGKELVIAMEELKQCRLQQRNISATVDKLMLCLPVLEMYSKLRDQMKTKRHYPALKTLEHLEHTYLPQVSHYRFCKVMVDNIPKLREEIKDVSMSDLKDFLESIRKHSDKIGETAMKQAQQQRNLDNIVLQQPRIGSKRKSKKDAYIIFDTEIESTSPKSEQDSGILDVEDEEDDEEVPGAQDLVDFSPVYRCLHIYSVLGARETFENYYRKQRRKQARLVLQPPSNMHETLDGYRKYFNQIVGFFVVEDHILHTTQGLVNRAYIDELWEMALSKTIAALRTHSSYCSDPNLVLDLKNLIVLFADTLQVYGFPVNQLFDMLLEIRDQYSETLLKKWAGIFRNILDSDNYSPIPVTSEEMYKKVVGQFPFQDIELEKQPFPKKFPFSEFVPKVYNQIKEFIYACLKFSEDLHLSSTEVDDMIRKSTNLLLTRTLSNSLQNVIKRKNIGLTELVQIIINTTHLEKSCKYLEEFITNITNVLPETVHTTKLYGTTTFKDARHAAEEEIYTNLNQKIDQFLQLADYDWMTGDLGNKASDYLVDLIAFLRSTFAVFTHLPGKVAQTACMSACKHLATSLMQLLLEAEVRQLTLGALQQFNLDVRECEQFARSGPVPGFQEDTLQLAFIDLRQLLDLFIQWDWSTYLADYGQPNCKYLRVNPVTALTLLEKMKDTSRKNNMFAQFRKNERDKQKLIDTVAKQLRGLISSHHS
UniProt Q56NI9: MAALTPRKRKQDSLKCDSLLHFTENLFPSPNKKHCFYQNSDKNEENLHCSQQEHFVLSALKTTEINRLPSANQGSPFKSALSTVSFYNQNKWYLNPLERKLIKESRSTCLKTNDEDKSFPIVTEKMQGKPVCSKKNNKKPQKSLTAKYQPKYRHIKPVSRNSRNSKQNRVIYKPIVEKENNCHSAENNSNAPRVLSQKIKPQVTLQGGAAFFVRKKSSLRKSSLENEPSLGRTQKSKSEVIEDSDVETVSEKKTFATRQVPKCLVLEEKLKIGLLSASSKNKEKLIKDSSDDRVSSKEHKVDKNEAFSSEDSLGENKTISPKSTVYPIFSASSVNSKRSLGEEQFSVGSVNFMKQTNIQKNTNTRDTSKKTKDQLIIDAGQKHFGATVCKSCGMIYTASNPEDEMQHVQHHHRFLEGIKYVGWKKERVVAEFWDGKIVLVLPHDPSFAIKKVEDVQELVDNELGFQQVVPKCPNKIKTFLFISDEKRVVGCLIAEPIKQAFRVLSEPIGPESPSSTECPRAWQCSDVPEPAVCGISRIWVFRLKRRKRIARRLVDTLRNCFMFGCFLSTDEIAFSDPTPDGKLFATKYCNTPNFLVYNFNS
UniProt Q6PEV8: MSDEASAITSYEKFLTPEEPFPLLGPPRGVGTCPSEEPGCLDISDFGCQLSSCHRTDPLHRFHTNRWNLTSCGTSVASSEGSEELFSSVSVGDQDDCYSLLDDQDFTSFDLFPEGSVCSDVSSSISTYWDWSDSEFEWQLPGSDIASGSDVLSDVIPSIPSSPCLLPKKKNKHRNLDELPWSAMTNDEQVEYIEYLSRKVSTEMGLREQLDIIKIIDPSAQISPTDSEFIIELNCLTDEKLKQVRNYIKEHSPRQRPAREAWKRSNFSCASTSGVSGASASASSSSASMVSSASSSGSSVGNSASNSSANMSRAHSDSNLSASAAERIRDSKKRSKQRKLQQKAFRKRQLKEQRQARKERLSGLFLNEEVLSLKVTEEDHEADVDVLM
UniProt Q96PV7: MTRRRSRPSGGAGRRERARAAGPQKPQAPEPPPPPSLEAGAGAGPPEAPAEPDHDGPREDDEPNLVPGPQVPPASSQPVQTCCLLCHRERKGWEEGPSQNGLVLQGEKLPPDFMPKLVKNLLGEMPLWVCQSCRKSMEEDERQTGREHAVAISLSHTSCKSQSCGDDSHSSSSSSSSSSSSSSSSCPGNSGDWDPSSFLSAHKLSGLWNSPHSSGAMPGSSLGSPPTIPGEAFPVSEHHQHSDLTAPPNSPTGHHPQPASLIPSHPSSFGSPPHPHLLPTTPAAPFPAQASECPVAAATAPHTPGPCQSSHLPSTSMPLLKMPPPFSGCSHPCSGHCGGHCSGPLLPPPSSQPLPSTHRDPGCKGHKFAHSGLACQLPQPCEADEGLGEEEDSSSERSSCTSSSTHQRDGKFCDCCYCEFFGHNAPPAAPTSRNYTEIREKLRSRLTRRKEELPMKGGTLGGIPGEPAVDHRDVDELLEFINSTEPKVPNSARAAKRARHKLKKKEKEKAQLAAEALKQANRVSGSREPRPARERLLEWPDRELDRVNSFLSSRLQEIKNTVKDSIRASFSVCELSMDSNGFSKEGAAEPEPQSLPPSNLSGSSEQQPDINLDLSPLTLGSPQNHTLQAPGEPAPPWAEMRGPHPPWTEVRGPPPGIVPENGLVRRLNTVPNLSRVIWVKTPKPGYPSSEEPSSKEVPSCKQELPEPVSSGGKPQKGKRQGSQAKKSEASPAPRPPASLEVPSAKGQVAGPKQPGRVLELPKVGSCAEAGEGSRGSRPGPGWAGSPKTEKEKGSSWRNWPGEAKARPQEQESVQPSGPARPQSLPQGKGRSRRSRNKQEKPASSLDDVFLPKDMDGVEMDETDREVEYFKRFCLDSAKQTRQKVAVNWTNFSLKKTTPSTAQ
UniProt Q6NZ36: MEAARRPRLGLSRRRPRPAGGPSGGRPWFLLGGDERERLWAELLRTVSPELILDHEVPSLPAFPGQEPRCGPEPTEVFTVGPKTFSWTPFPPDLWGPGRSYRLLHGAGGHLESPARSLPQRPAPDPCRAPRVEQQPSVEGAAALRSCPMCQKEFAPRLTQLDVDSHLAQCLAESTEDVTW
UniProt Q9NY74: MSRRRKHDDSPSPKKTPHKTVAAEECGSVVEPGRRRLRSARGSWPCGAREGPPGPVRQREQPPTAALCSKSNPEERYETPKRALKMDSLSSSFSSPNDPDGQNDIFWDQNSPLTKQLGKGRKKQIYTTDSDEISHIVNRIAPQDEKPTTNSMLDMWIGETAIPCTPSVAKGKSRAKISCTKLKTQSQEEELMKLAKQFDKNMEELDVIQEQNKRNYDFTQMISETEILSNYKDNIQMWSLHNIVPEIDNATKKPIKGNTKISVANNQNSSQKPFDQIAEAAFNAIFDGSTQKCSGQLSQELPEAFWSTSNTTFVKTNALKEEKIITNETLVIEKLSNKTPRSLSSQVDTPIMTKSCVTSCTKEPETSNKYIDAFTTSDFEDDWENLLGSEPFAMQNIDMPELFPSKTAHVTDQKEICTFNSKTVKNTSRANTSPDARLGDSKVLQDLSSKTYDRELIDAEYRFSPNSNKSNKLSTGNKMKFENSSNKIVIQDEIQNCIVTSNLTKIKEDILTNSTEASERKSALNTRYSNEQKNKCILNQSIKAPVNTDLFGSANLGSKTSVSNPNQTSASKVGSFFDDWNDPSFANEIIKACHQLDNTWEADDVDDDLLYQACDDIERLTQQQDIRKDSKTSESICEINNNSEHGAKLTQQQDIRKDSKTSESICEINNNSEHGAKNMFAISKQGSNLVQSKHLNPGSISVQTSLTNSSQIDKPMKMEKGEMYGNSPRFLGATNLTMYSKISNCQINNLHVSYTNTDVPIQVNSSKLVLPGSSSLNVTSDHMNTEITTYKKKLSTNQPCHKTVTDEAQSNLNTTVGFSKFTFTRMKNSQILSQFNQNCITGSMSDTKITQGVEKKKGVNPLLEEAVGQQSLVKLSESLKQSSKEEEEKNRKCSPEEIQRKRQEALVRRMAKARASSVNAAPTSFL

What was measured:
Assay in all cases: log2 fold change, soluble protein after heating vs DMSO (PISA); higher = thermal stabilisation; K562 lysate, 10 uM; active = over 0.2 and 3.5 SD of the protein, either way, in both replicates (recomputed)
[1] = compound: C/C(=N\NC(=O)C1=CC(=CC=C1)S(=O)(=O)N2CCOCC2)/C3=C(C=CC(=C3)Cl)O
Outline: (§1)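 K562 pellets were dounce-homogenised in PBS pH 7.4 containing 1 mM MgCl2, and the crude extract, at 1 mg/mL protein, was exposed to 10 μM compound for 30 min. Aliquots were heated for 3 min across 48°C-58°C, pooled, brought to 0.5% NP-40 at 4°C and spun at 21,000xg for 90 min, with the supernatant taken as soluble protein. TMTpro 16plex LC-MS/MS with equalised channel sums quantified that protein. Values are log-two fold changes in thermal stability relative to solvent controls, taken from duplicates.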

[2] = compound: C1=CC2=C(C=CC(=C2)/C=C\3/C(=O)NC(=NCC4=CC=CS4)S3)N=C1
Outline: as §1

[3] = compound: C1=CC2=NC=CN=C2C=C1/C=C/3\C(=O)NC(=O)S3
Outline: as §1

[4] = compound: C1=CC=C(C=C1)C2=NC(=C(N2)C3=CC=NC=C3)C4=CC(=C(C=C4)Cl)O
Outline: as §1

[5] = compound: C1=CC=C2C(=C1)C3=NNC4=CC=CC(=C43)C2=O
Outline: as §1

[6] = compound: C1CCN(C1)C(=O)NC2=CC=CC(=C2)NC3=NC=C(C(=N3)NCCC4=CN=CN4)Br
Outline: as §1

[7] = compound: C1CN(CCC1(CC2=CC=C(C=C2)Cl)N)C3=NC=NC4=C3C=CN4
Outline: as §1

[8] = compound: C1COCCN1CCN2C3=CC=CC=C3N=C2NC(=O)C4=CC(=CC=C4)[N+](=O)[O-] [IRAK-1-4 Inhibitor I]
Outline: as §1

[9] = compound: C=CC(=O)N1CCC[C@@H](n2nc(-c3ccc(Oc4ccccc4)cc3)c3c(N)ncnc32)C1 [ibrutinib]
Outline: as §1

[10] = compound: CC(=O)c1cnc2ccc(-c3cc(Cl)c(O)c(Cl)c3)nc2c1N[C@H]1CC[C@H](CN(C)C)CC1
Outline: as §1

[11] = compound: CC(C)(C)Cn1c(N)nc2ccc(-c3[nH]c(C(C)(C)C)nc3-c3ccc(F)cc3)nc21 [ralimetinib]
Outline: as §1

[12] = compound: CC(C)(O)CC(=O)NCCn1ccc2ncnc(Nc3ccc(Oc4cccc(C(F)(F)F)c4)c(Cl)c3)c21
Outline: as §1

[13] = compound: CC1=C(C(CC(=O)N1)C2=CC=C(C=C2)C(F)(F)F)C(=O)NC3=C(C=C4C(=C3)C=NN4)F
Outline: as §1

[14] = compound: CC1=C(C2=C(C=C1)C(=O)C3=CC=CC=C3N2CCCN)C
Outline: as §1

[15] = compound: CC1=C(C=C(C=C1)NC(=O)C2=CC(=CC=C2)C(C)(C)C#N)NC3=CC4=C(C=C3)N=CN(C4=O)C
Outline: as §1

[16] = compound: CC1=C(C=C(C=C1)NC(=O)C2=CC(=CC=C2)N(C)C)NC(=O)C3=CC=C(C=C3)O
Outline: as §1

[17] = compound: CC1=CC=C(C=C1)SC2=C3C=C(SC3=CN=C2)C(=O)N
Outline: as §1

[18] = compound: C#Cc1cccc(Nc2ncnc3cc(OCCOC)c(OCCOC)cc23)c1 [erlotinib]
Outline: as §1

[19] = compound: C1=CC(=CC=C1C2=NC3=C(N2)C=C(C=C3)C(=O)N)OC4=CC=C(C=C4)Cl
Outline: as §1

[20] = compound: CC(C)C1=C2N=C(C=C(N2N=C1)NCC3=CC=CC=C3)NCCCCCCN
Outline: as §1

Measured: log2 fold change

FAH isoform 2 (UniProt P16930)
inactive: [1] -0.2 | [2] -0.076 | [3] -0.088 | [4] 0.096 | [5] -0.146 | [6] -0.212 | [7] -0.072 | [8] -0.036 | [9] -0.017 | [10] 0.044 | [11] 0.119 | [12] -0.136 | [13] 0.137 | [14] -0.146 | [15] -0.358 | [16] -0.01 | [17] -0.105

FAM219B (UniProt Q5XKK7)
inactive: [3] -0.053 | [9] -0.008 | [15] 0.066

ETV5 isoform 2 (UniProt P41161)
inactive: [1] -0.022 | [2] -0.025 | [5] -0.016 | [6] 0.099 | [7] -0.011

FAM178B (UniProt Q8IXR5)
inactive: [6] -0.083 | [7] -0.009 | [15] 0.042

FAM72C (UniProt H0Y354)
inactive: [1] 0.027 | [2] 0.059 | [4] -0.116 | [5] 0.059 | [8] 0.254 | [11] -0.163 | [12] -0.395 | [16] 0.053

FAM110A (UniProt Q9BQ89)
inactive: [18] 0.06 | [19] 0.284 | [3] 0.064 | [9] 0.118 | [10] -0.014 | [20] 0.222 | [15] 0.178 | [17] 0.077

EXOC3L2, A0A1C7CYX0
inactive: [18] -0.142 | [19] 0.137 | [6] -0.053 | [7] 0.106 | [20] 0.012 | [14] 0.15 | [15] -0.057

EURL (UniProt Q9NYK6)
inactive: [18] -0.024 | [19] -0.027 | [10] 0.202 | [20] 0.179 | [14] -0.052 | [17] -0.032

EXOC6B (UniProt Q9Y2D4)
inactive: [1] 0.084 | [2] -0.053 | [5] 0 | [6] -0.058 | [7] 0.095 | [10] -0.039 | [13] 0.134 | [15] -0.034 | [17] 0.039

Pulled one by one from above, 2 records:
FAM178B (UniProt Q8IXR5)
inactive: [6] -0.083 | [7] -0.009 | [15] 0.042

EXOC6B (UniProt Q9Y2D4)
inactive: [1] 0.084 | [2] -0.053 | [5] 0 | [6] -0.058 | [7] 0.095 | [10] -0.039 | [13] 0.134 | [15] -0.034 | [17] 0.039

Additional records.

ESCO2 (UniProt Q56NI9)
inactive: [18] -0.118 | [19] 0.031 | [4] 0.12 | [6] 0.145 | [7] 0.085 | [8] -0.098 | [10] -0.098 | [11] 0.037 | [12] 0.126 | [20] 0.034 | [14] -0.122 | [15] -0.092 | [16] 0.125 | [17] 0.089

FAM199X (UniProt Q6PEV8)
inactive: [15] 0.024

FAM193B (UniProt Q96PV7)
inactive: [18] 0.111 | [1] 0.159 | [19] 0.019 | [2] -0.007 | [5] -0.108 | [10] 0.228 | [20] -0.089 | [15] 0.254 | [17] 0.052

ETV3 (UniProt P41162)
inactive: [4] 0.093 | [6] -0.051 | [7] -0.054 | [8] 0.019 | [11] -0.161 | [12] 0.156 | [16] 0.031

FAM3A (UniProt Q9BU27)
inactive: [4] 0.064 | [8] 0.068 | [11] 0.013 | [12] 0.014 | [13] -0.225 | [14] -0.255 | [16] -0.074

FAM234B (UniProt A2RU67)
inactive: [4] -0.062 | [8] -0.091 | [10] -0.157 | [11] -0.047 | [12] -0.078 | [16] 0.085 | [17] -0.123

FAM104A isoform 2 (UniProt Q969W3)
inactive: [3] -0.14 | [4] -0.144 | [8] 0.013 | [9] 0 | [11] -0.029 | [12] 0.133 | [14] -0.231 | [16] -0.044

FAAP20 isoform 2 (UniProt Q6NZ36)
inactive: [15] 0.082

FAM13A (UniProt O94988)
inactive: [4] -0.155 | [8] 0.177 | [11] -0.022 | [12] 0.102 | [14] -0.093 | [15] 0.051 | [16] 0.234

ETAA1 (UniProt Q9NY74)
inactive: [18] -0.228 | [1] -0.21 | [19] -0.412 | [2] 0.039 | [5] -0.389 | [6] -0.268 | [7] 0.375 | [20] -0.035

ERN1 (UniProt O75460)
inactive: [18] 0.048 | [19] -0.212 | [6] 0.019 | [7] -0.016 | [20] 0.041

FAM171A1 (UniProt Q5VUB5)
inactive: [18] 0.12 | [19] 0.044 | [4] -0.005 | [8] 0.074 | [10] 0.157 | [11] -0.004 | [12] -0.053 | [20] -0.107 | [14] 0.056 | [16] 0.103 | [17] -0.264
